{"source": "PubChem BioAssay AID504786 (Drosophila RNAi Screening Center, 2011)", "screen": "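Knock-downs reducing HIF reporter induction by the iron chelator DFO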 (primary screen)", "system": "Drosophila S2 cells with a stable HIF luciferase reporter", "reagent": "long dsRNA against Drosophila genes, about 0.2 µg dsRNA per well of a 384-well plate", "duration": "three days of knock-down, then 20 h of DFO before reading", "conditions": "desferrioxamine (DFO) at 100 µM, an iron chelator that mimics hypoxia, for 20 h", "measurement": "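HIF reporter luminescence in cells given 100 µM DFO for 20 h, using the mouse ldh-a hypoxia-response element, scored as per-plate z-scores; higher means greater loss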", "direction": "z-score: higher = stronger loss of HIF reporter signal", "note": "In all, the deposit lists about 21,000 reagents; this is a random part of those that have a named target and a result. 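Primary screen; positive scores mean lost reporter signal, so the sign may be inverted from the usual convention.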 Reagents against one gene are numbered here. Further read-outs or replicates are left out here."}
{"gene": "CG13614", "reagent": 1, "z-score, replicate 1": -0.4}
{"gene": "CG14551", "reagent": 1, "z-score, replicate 1": -0.3}
{"gene": "CG10086", "reagent": 1, "z-score, replicate 1": -0.2}
{"gene": "Slob (retired record)", "reagent": 1, "z-score, replicate 1": -0.3}
{"gene": "stumps", "reagent": 1, "z-score, replicate 1": -0.6}
{"gene": "stumps", "reagent": 2, "z-score, replicate 1": 5.3}
{"gene": "stumps", "reagent": 3, "z-score, replicate 1": -0.2}
{"gene": "Atet", "reagent": 1, "z-score, replicate 1": -0.4}
{"gene": "trr", "reagent": 1, "z-score, replicate 1": 0}
{"gene": "CG5614", "reagent": 1, "z-score, replicate 1": -0.2}
{"gene": "Osi24", "reagent": 1, "z-score, replicate 1": -0.4}
{"gene": "CG4465", "reagent": 1, "z-score, replicate 1": -1}
{"gene": "CG13358", "reagent": 1, "z-score, replicate 1": -0.3}
{"gene": "Oseg4", "reagent": 1, "z-score, replicate 1": -0.1}
{"gene": "CG32112", "reagent": 1, "z-score, replicate 1": -0.3}
{"gene": "Gapvd1", "reagent": 1, "z-score, replicate 1": -0.1}
{"gene": "CG3803", "reagent": 1, "z-score, replicate 1": -0.2}
{"gene": "CG15458", "reagent": 1, "z-score, replicate 1": -0.2}
{"gene": "CG1371", "reagent": 1, "z-score, replicate 1": -0.3}
{"gene": "Rh2", "reagent": 1, "z-score, replicate 1": 0}
{"gene": "CG1971", "reagent": 1, "z-score, replicate 1": -0.2}
{"gene": "CG17786", "reagent": 1, "z-score, replicate 1": -0.3}
{"gene": "betaTub60D", "reagent": 1, "z-score, replicate 1": -0.4}
{"gene": "CG3222", "reagent": 1, "z-score, replicate 1": -0.2}
{"gene": "Ak1", "reagent": 1, "z-score, replicate 1": -0.2}
{"gene": "gcl", "reagent": 1, "z-score, replicate 1": -0.3}
{"gene": "Cpr31A", "reagent": 1, "z-score, replicate 1": -0.1}

Looked up above.
Slob (retired record), z-score, replicate 1 → -0.3
Under “z-score, replicate 1”, Gapvd1 reads -0.1
CG13614, z-score, replicate 1: -0.4
For “z-score, replicate 1”, CG1371 is entered as -0.3
Under “z-score, replicate 1”, CG10086 reads -0.2
